# Values quoted from earlier work as cited in patent US12622909B2, “Allosteric EGFR inhibitors and methods of use thereof” (Dana-Farber Cancer Institute, Inc., priority 2019, dated 2026).
# At least one compound was matched to its structure with a doubt left.
# System: NSCLC that have developed resistance to gefitinib or erlotinib
# Conditions: patients with NSCLC resistant to gefitinib or erlotinib; cited from earlier work
compound,measurement,value
CN(C)C/C=C/C(=O)Nc1cc2c(Nc3ccc(F)c(Cl)c3)ncnc2cc1O[C@H]1CCOC1 [afatinib],RR (response rate),less than 10%
